Earlier results as cited in patent US20230165862A1, “CANCER THERAPY USING 3,5-DISUBSTITUTED BENZENE ALKYNYL COMPOUND AND MEK INHIBITOR” (TAIHO PHARMACEUTICAL CO., LTD., priority 2020, published 2023).
Like-named read-outs stand apart in the source and are kept apart here.

Conditions: human

In the case of `C=CC(=O)N1CC[C@H](n2nc(C#Cc3cc(OC)cc(OC)c3)c3c(N)ncnc32)C1` [Compound 1, (S)-1-(3-(4-amino-3-((3,5-dimethoxyphenyl)ethynyl)-1H-pyrazolo[3,4-d]pyrimidin-1-yl)pyrrolidin-1-yl)prop-2-en-1-one], the “Time the blood concentration (4.2 ng/mL, corresponds to 10 nM) is maintained” value (QD dose (every day) of 8 mg or more) is listed as no less than 16 h and the “Time the blood concentration (4.2 ng/mL, corresponds to 10 nM) is maintained” value (QOD dose (once every two days) of 24 mg or more) is listed as no less than 36 h.
